The list shows a part of the results. Many values rest on one well or one pass, so single values are uncertain.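 The apoptosis fraction was the count of cleaved-PARP antibody-stained nuclei relative to all DNA-stained nuclei, imaged in 1,536-well plates. Screening doses were set so most cells survived, and baseline and induced cleaved-PARP levels vary greatly across cell lines.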
Key:
Experiment in all cases: cleaved PARP positive nuclei fraction relative to DMSO control; melanoma cells; higher = more apoptosis
Details in all cases: library dose: low library concentration; 72 h
MZ2-MEL = system: MZ2-MEL
MeWo = system: MeWo
RPMI7951 = system: RPMI7951
RVH-421 = system: RVH-421
SkMel28 = system: SkMel28
SkMel2 = system: SkMel2
SkMel30 = system: SkMel30
SkMel5 = system: SkMel5
UACC257 = system: UACC257
UACC62 = system: UACC62
WM115 = system: WM115
WM1716 = system: WM1716
WM1745 = system: WM1745
WM3526 = system: WM3526
WM3619 = system: WM3619
WM451Lu = system: WM451Lu

Compound | cleaved PARP positive nuclei fraction (MZ2-MEL) [%] | cleaved PARP positive nuclei fraction (MeWo) [%] | cleaved PARP positive nuclei fraction (RPMI7951) [%] | cleaved PARP positive nuclei fraction (RVH-421) [%] | cleaved PARP positive nuclei fraction (SkMel28) [%] | cleaved PARP positive nuclei fraction (SkMel2) [%] | cleaved PARP positive nuclei fraction (SkMel30) [%] | cleaved PARP positive nuclei fraction (SkMel5) [%] | cleaved PARP positive nuclei fraction (UACC257) [%] | cleaved PARP positive nuclei fraction (UACC62) [%] | cleaved PARP positive nuclei fraction (WM115) [%] | cleaved PARP positive nuclei fraction (WM1716) [%] | cleaved PARP positive nuclei fraction (WM1745) [%] | cleaved PARP positive nuclei fraction (WM3526) [%] | cleaved PARP positive nuclei fraction (WM3619) [%] | cleaved PARP positive nuclei fraction (WM451Lu) [%]
CN1CCN(c2ccc3nc(-c4c(N)c5c(F)cccc5[nH]c4=O)[nH]c3c2)CC1 [Dovitinib] + Cc1ccc(NC(=O)c2cccc(N(C)C)c2)cc1NC(=O)c1ccc(O)cc1 [ZM336372] (first compound 0.1 µM, partner dose 2 µM) | 62.8 | 182 | 69.6 | 135 | 91.4 | 37.1 | 121 | 39 | 103 | 204 | 216 | 106 | 108 | 71.5 | 85.7 | 67.6
CN1CCN(c2ccc3nc(-c4c(N)c5c(F)cccc5[nH]c4=O)[nH]c3c2)CC1 [Dovitinib] + Cc1cc([N+](=O)[O-])ccc1NS(=O)(=O)c1cc(Cl)ccc1Cl [FH535] (first compound 0.1 µM, partner dose 1 µM) | 26.5 | 36.5 | 115 | 157 | 137 | 26.5 | 115 | 84.8 | 73 | 132 | 133 | 149 | 101 | 233 | 73.5 | 140
Nc1nc(F)nc2c1ncn2[C@@H]1O[C@H](CO)[C@@H](O)[C@@H]1O [fludarabine] + NC(=O)Nc1cc(-c2cccc(F)c2)sc1C(=O)N[C@H]1CCCNC1 [AZD7762] (first compound 0.2 µM, partner dose 0.02 µM) | 83.7 | 623 | 349 | 150 | 45.2 | 258 | 419 | 171 | 238 | 197 | 83.8 | 156 | 105 | 165 | 203 | 155
CS(=O)(=O)CCNCc1ccc(-c2ccc3ncnc(Nc4ccc(OCc5cccc(F)c5)c(Cl)c4)c3c2)o1 [lapatinib] + CO[C@@H]1[C@H](N(C)C(=O)c2ccccc2)C[C@H]2O[C@]1(C)n1c3ccccc3c3c4c(c5c6ccccc6n2c5c31)C(=O)NC4 [Midostaurin] (first compound 0.8 µM, partner dose 0.08 µM) | 91.8 | 317 | 57.3 | 58.9 | 138 | 128 | 300 | 84.9 | 108 | 221 | 324 | 253 | 188 | 56.5 | 94.9 | 31.1
Cc1cc(Nc2cc(N3CCN(C)CC3)nc(/C=C/c3ccccc3)n2)n[nH]1 + C[C@@H]1CCN(C(=O)CC#N)C[C@@H]1N(C)c1ncnc2[nH]ccc12 [CP690550] (first compound 0.04 µM, partner dose 1 µM) | 95.1 | 107 | 32.8 | 40.1 | 82.8 | 198 | 67.5 | 31 | 119 | 76 | 87.7 | 91.3 | 215 | 186 | 92.7 | 69.5
Cn1c(=O)n(-c2ccc(C(C)(C)C#N)cc2)c2c3cc(-c4cnc5ccccc5c4)ccc3ncc21 + CC1(C)NC(=O)N(c2ccc([N+](=O)[O-])c(C(F)(F)F)c2)C1=O [nilutamide] (first compound 0.004 µM, partner dose 1 µM) | 90.5 | 47.8 | 222 | 274 | 205 | 136 | 77.7 | 76 | 48.9 | 84.1 | 140 | 141 | 102 | 120 | 99 | 31.6
Nc1ncn([C@H]2C[C@H](O)[C@@H](CO)O2)c(=O)n1 [decitabine] + CC(C)(C)c1cnc(CSc2cnc(NC(=O)C3CCNCC3)s2)o1 [SNS-032] (first compound 0.1 µM, partner dose 0.01 µM) | 306 | 184 | 52.1 | 52 | 179 | 161 | 68 | 90.1 | 92 | 99.9 | 193 | 76.9 | 435 | 120 | 104 | 72
Cn1c(=O)n(-c2ccc(C(C)(C)C#N)cc2)c2c3cc(-c4cnc5ccccc5c4)ccc3ncc21 + Cn1cc(/C=C2\C(=O)Nc3cccnc32)c2ccccc21 [GW441756] (first compound 0.004 µM, partner dose 0.4 µM) | 108 | 59 | 36.3 | 243 | 106 | 15.9 | 21.6 | 80.8 | 95 | 148 | 32.8 | 77.6 | 69 | 34.7 | 66.7 | 60.9
CC(C)C[C@H](NC(=O)[C@H](Cc1ccccc1)NC(=O)c1cnccn1)B(O)O [Bortezomib] + CN(C)S(=O)(=O)c1ccc2c(c1)/C(=C/c1cc3c([nH]1)CCCC3)C(=O)N2 [SU6656] (first compound 0.001 µM, partner dose 0.4 µM) | 111 | 71.3 | 114 | 97.7 | 132 | 41.6 | 159 | 154 | 84.7 | 161 | 148 | 514 | 189 | 85.4 | 503 | 70.7
Nc1nc(F)nc2c1ncn2[C@@H]1O[C@H](CO)[C@@H](O)[C@@H]1O [fludarabine] + O=C(CCCCCCC(=O)Nc1ccccc1)NO [vorinostat] (first compound 0.2 µM, partner dose 0.08 µM) | 60.9 | 648 | 47.7 | 44.8 | 43.9 | 457 | 461 | 1010 | 141 | 38.4 | 70.4 | 74.2 | 93.4 | 1500 | 106 | 124
C=C(c1ccc(C(=O)O)cc1)c1cc2c(cc1C)C(C)(C)CCC2(C)C [Bexarotene] + COc1cc2ncnc(Nc3ccc(Oc4ccccc4)cc3)c2cc1OC [SrcI1] (first compound 2 µM, partner dose 2 µM) | 206 | 93.5 | 133 | 80.4 | 202 | 91.8 | 145 | 87 | 184 | 186 | 96.6 | 239 | 114 | 76.3 | 106 | 141
CN1CCN(c2ccc3nc(-c4c(N)c5c(F)cccc5[nH]c4=O)[nH]c3c2)CC1 [Dovitinib] + Oc1cc(-c2nc(-c3ccccc3)[nH]c2-c2ccncc2)ccc1Cl [L779450] (first compound 0.1 µM, partner dose 0.2 µM) | 131 | 31.6 | 42.4 | 205 | 181 | 125 | 179 | 84.5 | 319 | 406 | 127 | 48 | 100 | 89.4 | 99 | 92.4
CN1CCN(c2ccc3nc(-c4c(N)c5c(F)cccc5[nH]c4=O)[nH]c3c2)CC1 [Dovitinib] + Cn1cc(/C=C2\C(=O)Nc3cccnc32)c2ccccc21 [GW441756] (first compound 0.1 µM, partner dose 0.4 µM) | 62.2 | 35.6 | 162 | 119 | 104 | 21.1 | 133 | 38.8 | 257 | 86.1 | 159 | 52.2 | 107 | 192 | 109 | 57.3
C=C(c1ccc(C(=O)O)cc1)c1cc2c(cc1C)C(C)(C)CCC2(C)C [Bexarotene] + O=C(O)c1ccc(-c2c[nH]c3ncc(-c4ccccc4)cc23)cc1C1CCCC1 [GSK650394] (first compound 2 µM, partner dose 0.16 µM) | 57.9 | 46.5 | 172 | 74 | 72.8 | 59.9 | 119 | 148 | 68.9 | 48.8 | 66.2 | 54.2 | 94.3 | 69.2 | 92 | 81.2
Cc1cc(Nc2cc(N3CCN(C)CC3)nc(/C=C/c3ccccc3)n2)n[nH]1 + N#Cc1c(O)c2c(-c3ccc(-c4ccccc4O)cc3)csc2[nH]c1=O [A769662] (first compound 0.04 µM, partner dose 2 µM) | 136 | 83.2 | 62.6 | 71.5 | 184 | 125 | 75.8 | 253 | 113 | 90.9 | 57.1 | 75.6 | 98.2 | 84.2 | 79.4 | 142
CN1CCN(c2ccc3nc(-c4c(N)c5c(F)cccc5[nH]c4=O)[nH]c3c2)CC1 [Dovitinib] + CC(C)(C)c1cnc(CSc2cnc(NC(=O)C3CCNCC3)s2)o1 [SNS-032] (first compound 0.1 µM, partner dose 0.01 µM) | 178 | 106 | 43.5 | 22.1 | 70.8 | 126 | 79.3 | 187 | 70.2 | 324 | 54.7 | 178 | 117 | 66.2 | 95.1 | 39.7
C[C@@H](Oc1cc(-c2cnn(C3CCNCC3)c2)cnc1N)c1c(Cl)ccc(F)c1Cl [Crizotinib] + c1cc(-c2cnn3cc(-c4ccc(OCCN5CCCCC5)cc4)cnc23)ccn1 [Dorsomorphin] (first compound 0.2 µM, partner dose 0.4 µM) | 73.9 | 30 | 224 | 154 | 55.2 | 83.3 | 24.6 | 99.1 | 181 | 287 | 204 | 47.8 | 124 | 171 | 85.4 | 73.9
Cc1cc(Nc2cc(N3CCN(C)CC3)nc(/C=C/c3ccccc3)n2)n[nH]1 + O=S(=O)(c1ccccc1)N(CC(F)(F)F)c1ccc(C(O)(C(F)(F)F)C(F)(F)F)cc1 [T0901317] (first compound 0.04 µM, partner dose 1.4 µM) | 100 | 93.7 | 242 | 84.2 | 34.7 | 209 | 99.9 | 163 | 222 | 84.4 | 88.3 | 72 | 107 | 158 | 85.3 | 74.1
CCCS(=O)(=O)Nc1ccc(F)c(C(=O)c2c[nH]c3ncc(Cl)cc23)c1F + Oc1nc(-c2ccc(C(F)(F)F)cc2)nc2c1CSCC2 [XAV939] (first compound 0.08 µM, partner dose 2 µM) | 76.1 | 99.9 | 133 | 171 | 51.6 | 61 | 78.7 | 78.7 | 90.1 | 160 | 111 | 139 | 114 | 98.4 | 113 | 46.9

Single records, as listed above. Order of values: cleaved PARP positive nuclei fraction (MZ2-MEL) [%]	cleaved PARP positive nuclei fraction (MeWo) [%]	cleaved PARP positive nuclei fraction (RPMI7951) [%]	cleaved PARP positive nuclei fraction (RVH-421) [%]	cleaved PARP positive nuclei fraction (SkMel28) [%]	cleaved PARP positive nuclei fraction (SkMel2) [%]	cleaved PARP positive nuclei fraction (SkMel30) [%]	cleaved PARP positive nuclei fraction (SkMel5) [%]	cleaved PARP positive nuclei fraction (UACC257) [%]	cleaved PARP positive nuclei fraction (UACC62) [%]	cleaved PARP positive nuclei fraction (WM115) [%]	cleaved PARP positive nuclei fraction (WM1716) [%]	cleaved PARP positive nuclei fraction (WM1745) [%]	cleaved PARP positive nuclei fraction (WM3526) [%]	cleaved PARP positive nuclei fraction (WM3619) [%]	cleaved PARP positive nuclei fraction (WM451Lu) [%]
CS(=O)(=O)CCNCc1ccc(-c2ccc3ncnc(Nc4ccc(OCc5cccc(F)c5)c(Cl)c4)c3c2)o1 [lapatinib] + CO[C@@H]1[C@H](N(C)C(=O)c2ccccc2)C[C@H]2O[C@]1(C)n1c3ccccc3c3c4c(c5c6ccccc6n2c5c31)C(=O)NC4 [Midostaurin] (first compound 0.8 µM, partner dose 0.08 µM) as listed: 91.8	317	57.3	58.9	138	128	300	84.9	108	221	324	253	188	56.5	94.9	31.1
C=C(c1ccc(C(=O)O)cc1)c1cc2c(cc1C)C(C)(C)CCC2(C)C [Bexarotene] + COc1cc2ncnc(Nc3ccc(Oc4ccccc4)cc3)c2cc1OC [SrcI1] (first compound 2 µM, partner dose 2 µM) as listed: 206	93.5	133	80.4	202	91.8	145	87	184	186	96.6	239	114	76.3	106	141

From the supplement of paper PMC4604168 (melanoma cell lines)
